Assay results reported in publication PMC9278077.

Amino acid sequences for entries named in this document (tags omitted).
UniProt Q5TKR9: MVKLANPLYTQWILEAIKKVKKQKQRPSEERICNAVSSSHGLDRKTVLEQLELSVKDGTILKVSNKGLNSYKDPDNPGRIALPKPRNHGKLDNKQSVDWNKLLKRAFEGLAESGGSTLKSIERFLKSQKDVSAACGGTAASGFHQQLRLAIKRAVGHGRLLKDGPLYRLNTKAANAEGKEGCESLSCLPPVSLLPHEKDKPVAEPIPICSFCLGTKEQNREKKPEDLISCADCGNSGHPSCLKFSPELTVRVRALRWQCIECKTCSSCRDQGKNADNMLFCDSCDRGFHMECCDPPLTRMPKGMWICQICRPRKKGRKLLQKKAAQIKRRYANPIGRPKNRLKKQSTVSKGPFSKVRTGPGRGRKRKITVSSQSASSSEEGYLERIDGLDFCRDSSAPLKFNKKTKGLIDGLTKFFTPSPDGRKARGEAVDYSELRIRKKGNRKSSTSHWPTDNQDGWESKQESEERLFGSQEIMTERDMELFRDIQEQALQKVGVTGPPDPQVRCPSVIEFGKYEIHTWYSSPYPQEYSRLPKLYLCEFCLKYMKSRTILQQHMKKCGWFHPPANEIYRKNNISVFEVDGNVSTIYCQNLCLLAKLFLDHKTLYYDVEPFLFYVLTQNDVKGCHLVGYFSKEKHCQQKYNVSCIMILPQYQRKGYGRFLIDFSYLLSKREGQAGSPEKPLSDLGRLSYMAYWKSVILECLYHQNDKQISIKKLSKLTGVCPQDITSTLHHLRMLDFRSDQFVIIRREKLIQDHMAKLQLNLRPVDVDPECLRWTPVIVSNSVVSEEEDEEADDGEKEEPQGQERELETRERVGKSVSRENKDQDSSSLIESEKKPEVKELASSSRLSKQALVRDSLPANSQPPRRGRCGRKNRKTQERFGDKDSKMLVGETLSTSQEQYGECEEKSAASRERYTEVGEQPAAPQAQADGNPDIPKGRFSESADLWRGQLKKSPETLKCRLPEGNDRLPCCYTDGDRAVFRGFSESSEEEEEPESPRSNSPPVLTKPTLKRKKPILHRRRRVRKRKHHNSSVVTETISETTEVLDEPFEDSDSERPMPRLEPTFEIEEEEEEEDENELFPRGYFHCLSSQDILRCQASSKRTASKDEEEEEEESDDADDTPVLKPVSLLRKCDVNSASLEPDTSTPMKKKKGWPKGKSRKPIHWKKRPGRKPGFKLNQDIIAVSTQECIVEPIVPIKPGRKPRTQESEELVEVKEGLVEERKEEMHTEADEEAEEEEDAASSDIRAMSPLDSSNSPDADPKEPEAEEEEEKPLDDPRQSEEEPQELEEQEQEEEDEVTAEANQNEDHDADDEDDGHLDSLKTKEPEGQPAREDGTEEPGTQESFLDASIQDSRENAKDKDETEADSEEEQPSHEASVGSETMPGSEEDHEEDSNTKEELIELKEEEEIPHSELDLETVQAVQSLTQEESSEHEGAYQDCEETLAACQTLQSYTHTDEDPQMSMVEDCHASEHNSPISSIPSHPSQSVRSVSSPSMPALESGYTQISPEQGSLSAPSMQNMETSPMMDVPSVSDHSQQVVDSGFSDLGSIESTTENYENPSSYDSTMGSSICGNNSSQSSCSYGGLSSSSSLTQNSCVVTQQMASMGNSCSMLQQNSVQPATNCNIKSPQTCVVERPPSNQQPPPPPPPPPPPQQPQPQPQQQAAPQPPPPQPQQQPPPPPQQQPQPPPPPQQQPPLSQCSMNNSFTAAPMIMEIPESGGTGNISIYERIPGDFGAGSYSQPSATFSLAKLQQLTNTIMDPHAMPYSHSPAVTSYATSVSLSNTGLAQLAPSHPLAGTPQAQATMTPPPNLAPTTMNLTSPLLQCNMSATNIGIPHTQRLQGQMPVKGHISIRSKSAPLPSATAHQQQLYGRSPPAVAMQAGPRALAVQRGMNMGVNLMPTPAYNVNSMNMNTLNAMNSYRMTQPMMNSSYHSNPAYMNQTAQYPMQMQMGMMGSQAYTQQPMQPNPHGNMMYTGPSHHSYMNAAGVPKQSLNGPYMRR

Molecular target: Dual-specificity tyrosine regulated kinase 1A (DYRK1A), endogenous in rat neonatal cardiomyocytes (rat (endogenous in neonatal cardiomyocytes)) (UniProt Q63470)
Assay: affinity purification with mass spectrometry; DYRK1A complexes immunoprecipitated from lysates of rat neonatal cardiomyocytes in primary culture (protein A/G agarose); trypsin digest, tandem mass tag labelling, LC-MS/MS

binding: binds
Substance: Lysine acetyltransferase 6A (KAT6A), endogenous in rat neonatal cardiomyocytes (from UniProt Q5TKR9 1-1998)

No constants are given. Whether binding was seen depends on the method and setting. Binding seen in cells or lysates may run through a third protein. Here binding means that the protein was enriched with, or labelled near, the bait; the list need not be complete.
